Measured values from paper PMC3902904, “Intrinsically disordered regions of nucleophosmin/B23 regulate its RNA binding activity through their inter- and intra-molecular association” (Nucleic Acids Research, 2013).
Results are given in words; binding and its absence hold for the method and conditions named.

Sequences of proteins named here, by UniProt entry; tags and fusion partners are left off. Residues count along the entry.
GST-B23.1-A (P06748, residues 120-188): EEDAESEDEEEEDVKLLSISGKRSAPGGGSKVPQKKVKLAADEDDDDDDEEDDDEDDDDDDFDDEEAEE
GST-B23.1-CR1.5 (P06748, residues 242-294): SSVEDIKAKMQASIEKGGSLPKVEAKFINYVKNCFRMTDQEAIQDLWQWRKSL

Molecular target: GST-B23.1-A (human) (UniProt P06748)
Experiment: condition: up to 4.0 µg GST-B23.1-CR1.5 with 0.5 µg GST-B23.1-A; native gel or EMSA; GST-B23.1-A (0.5 µg) mixed with increasing amounts (0.5, 1.0, 2.0, 4.0 µg) of the other GST-tagged fragment in 10 µl buffer H, 30 min, room temperature; 6% native PAGE in 0.5x TBE, CBB staining; both purified

- binding: no binding
Substance: GST-B23.1-CR1.5 (from UniProt P06748 242-294) (domain or fragment)
